Data published in article PMC9720572, “Macromolecular crowding amplifies allosteric regulation of T-cell protein tyrosine phosphatase” (The Journal of Biological Chemistry, 2022).
Positions count from the first letter of the chain named. These are yes or no findings as the source states them, for the method shown. Binding seen in cells or lysates may run through a third protein. Some entries that bind do so weakly or less than the wild type. Tags and fused reporters may be left off the sequences shown.

B1: T-cell protein tyrosine phosphatase, 45 kDa form (TC45), wild type, fused at both termini to CFP (CFP-TC45-CFP) or to YFP (YFP-TC45-YFP), bacterially expressed (enzyme, UniProt P17706-2 1-387, looked up)
chain: MPTTIEREFEELDTQRRWQPLYLEIRNESHDYPHRVAKFPENRNRNRYRDVSPYDHSRVKLQNAENDYINASLVDIEEAQRSYILTQGPLPNTCCHFWLMVWQQKTKAVVMLNRIVEKESVKCAQYWPTDDQEMLFKETGFSVKLLSEDVKSYYTVHLLQLENINSGETRTISHFHYTTWPDFGVPESPASFLNFLFKVRESGSLNPDHGPAVIHCSAGIGRSGTFSLVDTCLVLMEKGDDINIKQVLLNMRKYRMGLIQTPDQLRFSYMAIIEGAKCIKGDSSIQKRWKELSKEDLSPAFDHSPNKIMTEKYNGNRIGLEEEKLTGDRCTGLSSKMQDTMEENSESALRKRIREDRKATTAQKVQQMKQRLNENERKRKRPRLTDT
notes: T-cell protein tyrosine phosphatase (TC-PTP, encoded by PTPN2), 45 kDa form TC45, full-length ORF; the printed residues 377RKRKRPR383 near the C terminus fit the 387-residue TC45 isoform; Self-association was tested with an equimolar mixture of two differently labelled copies: CFP-TC45-CFP and YFP-TC45-YFP; The His6 tag and its thrombin cleavage are described in general for the pET28 constructs …
B2: TC45^E/A (TC45 with 378KRKRPR383 mutated into 378EAAAPE383), fused at both termini to CFP (CFP-TC45^E/A-CFP) or to YFP (YFP-TC45^E/A-YFP), bacterially expressed (enzyme, UniProt P17706-2 1-387, looked up)
chain: B1 chain with K378E, R379A, K380A, R381A, R383E
notes: The His6 tag and its thrombin cleavage are described in general for the pET28 constructs and the purification; also called C-EA-C; Y-EA-Y; not shown: His6, N-terminal, cleaved; CFP (one copy) or YFP (the other copy), N-terminal, kept; CFP (one copy) or YFP (the other copy), C-terminal, kept

Assays:
[1] = molecular target: TC45 wild type fused at both termini to CFP (CFP-TC45-CFP) or to YFP (YFP-TC45-YFP), expressed in NCI-H358 cells (UniProt P17706); assay: FRET or BRET; FRET-based flow cytometry of NCI-H358 cells cotransfected with the CFP-X-CFP and YFP-X-YFP constructs, 24 h; cells cotransfected with NLS-CFP and NLS-YFP as the basis for the intermolecular FRET signal
[2] = molecular target: TC45^E/A fused at both termini to CFP (CFP-TC45^E/A-CFP) or to YFP (YFP-TC45^E/A-YFP), expressed in NCI-H358 cells (UniProt P17706); assay: as above

Row | Binder | binding [1] | binding [2]
1 | B1 | binds | –
2 | B2 | – | binds
